Assay results published in patent publication US7223850.
No constants are given. Whether binding was seen depends on the method and setting. Binding seen in cells or lysates may run through a third protein. Some results given as binding are weak or reduced against the parent protein; the word gives no strength.

Chains of the proteins cited; added tags and fusions are not shown. Lines headed by an entry give the natural chain unless they say otherwise; changes in a name come on top.
UniProt Q13546: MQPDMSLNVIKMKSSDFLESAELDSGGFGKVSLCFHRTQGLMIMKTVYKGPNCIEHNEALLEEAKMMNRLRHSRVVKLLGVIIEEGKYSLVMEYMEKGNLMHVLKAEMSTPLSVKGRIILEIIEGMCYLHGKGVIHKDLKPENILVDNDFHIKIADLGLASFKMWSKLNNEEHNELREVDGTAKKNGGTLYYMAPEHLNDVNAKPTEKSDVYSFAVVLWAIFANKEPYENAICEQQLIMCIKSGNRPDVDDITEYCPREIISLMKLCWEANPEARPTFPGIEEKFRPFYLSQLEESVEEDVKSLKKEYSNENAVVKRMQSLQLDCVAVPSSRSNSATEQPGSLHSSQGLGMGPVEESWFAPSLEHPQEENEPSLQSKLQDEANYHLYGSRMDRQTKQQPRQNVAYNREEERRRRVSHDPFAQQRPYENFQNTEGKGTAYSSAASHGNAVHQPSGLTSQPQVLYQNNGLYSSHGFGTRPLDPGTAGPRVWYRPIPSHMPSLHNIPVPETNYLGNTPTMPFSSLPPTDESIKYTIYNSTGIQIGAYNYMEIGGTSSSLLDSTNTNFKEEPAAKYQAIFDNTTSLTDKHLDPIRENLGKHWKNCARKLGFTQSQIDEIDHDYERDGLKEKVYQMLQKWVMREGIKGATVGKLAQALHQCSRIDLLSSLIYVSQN
UniProt Q9Y572: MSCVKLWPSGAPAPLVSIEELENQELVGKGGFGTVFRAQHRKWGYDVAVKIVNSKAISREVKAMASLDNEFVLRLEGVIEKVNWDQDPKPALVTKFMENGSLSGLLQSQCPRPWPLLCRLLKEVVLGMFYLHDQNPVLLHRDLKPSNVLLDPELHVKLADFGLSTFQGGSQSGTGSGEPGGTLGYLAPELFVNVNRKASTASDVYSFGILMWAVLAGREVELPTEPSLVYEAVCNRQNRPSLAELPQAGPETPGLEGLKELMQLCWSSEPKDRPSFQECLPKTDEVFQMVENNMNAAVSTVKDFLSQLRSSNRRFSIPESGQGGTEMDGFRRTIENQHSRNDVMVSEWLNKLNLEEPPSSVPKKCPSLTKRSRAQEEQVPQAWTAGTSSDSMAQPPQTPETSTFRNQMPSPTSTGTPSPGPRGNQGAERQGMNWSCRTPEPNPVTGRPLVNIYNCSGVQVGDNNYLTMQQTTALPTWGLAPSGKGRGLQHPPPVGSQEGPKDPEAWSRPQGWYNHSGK

Molecular target: HA-tagged RIP (UniProt Q13546)
Test: co-immunoprecipitation, HA-RIP and Flag-Apop3 mutant co-transfected in Phoenix-A (293 T) cells, anti-Flag immunoblot

Substance: Flag-tagged Apop3(82-518) (from UniProt Q9Y572 82-518) (enzyme)
- binding: binds
